Source: PubChem BioAssay AID1487 (National Center for Advancing Translational Sciences (NCATS), 2009)
Values joined by “and” are separate entries in the source; they are usually repeats but may differ in a detail not shown here. Identical values can stand only once. Hit rate of the full screen: of about 200,000 compounds, about 25 (0.01%) were called active. This list was built around the results that the source calls inconclusive (neither active nor inactive); the mix of calls is not that of the screen. Calls come from the whole dose curve; as a rule, active = well fitted inhibition curve with a large enough effect in the signal ratio, with a control signal flat (not every such curve was filed as active); inconclusive = small, poorly fitted or top-dose-only effect, or effect the other way, or a change in a side signal; inactive = flat fitted curve, though single readings scatter; the % refers to the signal ratio. Where the call is inconclusive, the potency comes from a doubtful curve fit.

experiment: qHTS Assay for Modulators of Lamin A Splicing; details: HeLa LMNA splicing GFP/RFP minigene ratio, 48 h; ratio change, negative = inhibition: at 46.1 µM (top of the series) unless noted
Method in brief: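 Read-out is the ratio of GFP to DsRed2 object intensity, acquired by 488 nm laser-scanning cytometry on HeLa lamin A-EGFP minigene reporter cells. Compound incubation 48 hrs at 37 °C in Opti-MEM with 2% FBS; DMSO 0.5% final.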
% is set by controls: 0 for no effect and ±100 for the full control effect; potency is the fitted concentration of half-maximal effect.

| Compound | ratio change, negative = inhibition | Potency |
| --- | --- | --- |
| CN(c1ccccc1)S(=O)(=O)c1cccc(NC(=O)CN2CCc3ccccc3C2)c1 | inconclusive: -25.2% [at 46 µM] | – |
| CN(Cc1ccccc1)c1nc(N)nc(Cl)c1C=O | inconclusive: -15.6% [at 46 µM] | – |
| Fc1cccc(CN2CCN(C(=S)NCCc3ccccc3)CC2)c1 | inconclusive: -34.4% [at 46 µM] | – |
| Cc1ccc(NS(=O)(=O)c2ccc3c(c2)NC(=O)CCS3)cc1C | – | inconclusive: 11.2 µM [inhibitor, partial curve] |
| CCOC(=O)c1cccc(NC(=O)c2cc(CN3CCOCC3)on2)c1 | inactive | – |
| Cc1c(C(=O)N2CCN(Cc3ccc4c(c3)OCO4)CC2)cccc1[N+](=O)[O-] | inconclusive: -36.4% | – |
| C=CCN1C(=O)/C(=C2\SC(N3CCOCC3)=NC2=O)c2cc(Br)ccc21 | inactive | – |
| COc1ccccc1NC(=O)c1c(NCc2ccc(C)o2)sc2c1CCC(C)C2 (configuration not stated) | – | inconclusive: 10 µM [inhibitor, partial curve] |
| CC(=O)c1c(C)nc(-c2ccc(Cl)cc2)nc1N=CN(C)C | inactive | – |
| CCOC(=O)/C(C(=O)Nc1ccccc1Cl)=C1/NC(C)(C)Cc2ccccc21 | inactive | – |
| Cc1onc(-c2ccccc2)c1C(=O)N/N=C/c1cc2c(cc1Cl)OCO2 | – | inconclusive: 35.5 µM [fluorescent, single point] |
| CC(=O)C1=C(C)NC(SCC(=O)c2ccccc2)=C(C#N)C1CC(C)C (configuration not stated) | inactive | – |
| Cc1cc(C)c(C)c(OCCCn2ccnc2)c1 | inactive | – |
| O=C(NNS(=O)(=O)c1ccccc1)c1cnn(-c2ccccc2)c1-n1cccc1 | inactive | – |
| CC(C)COc1ccc(S(=O)(=O)n2cc(F)c(=O)[nH]c2=O)cc1 | – | inconclusive: 1.58 µM [inhibitor, partial curve] |
| O=C(NNc1ccc(Cl)cc1)c1cccs1 | – | inconclusive: 6.31 µM [activator, partial curve] |
| Cc1ccc(-n2ncc3c(N4CCC(C(N)=O)CC4)ncnc32)c(C)c1 | inactive | – |
| CSc1nsc(/C=C/Nc2ccc(F)cc2F)c1C#N | inconclusive: -8.43% [at 46 µM] | – |
| CCN1CCN(C(c2ccccc2)c2sc3nc(-c4ccco4)nn3c2O)CC1 (configuration not stated) | inactive | – |
| CN(NS(=O)(=O)c1ccc(F)cc1)c1ncc(C(F)(F)F)cc1Cl | inconclusive: 24.9% [at 46 µM] | – |
| C[N+]1(CCCCC[N+]2(C)CCCC2)CCCC1 | inconclusive: -7.92% and inconclusive: -16.4% | – |
| NS(=O)(=O)c1ccc(NC(=S)NC2CCCCCC2)cc1 | inactive | – |
| Cc1nn(C(C)C)c(C)c1CN1CCCC(C(=O)c2cccc(OC(C)C)c2)C1 (configuration not stated) | inconclusive: 12.5% [at 46 µM] | – |
| CC(C)(O)C1Cc2cc(/C=C/C(=O)O)c(O)cc2O1 (configuration not stated) | inconclusive: -21.6% [at 46 µM] | – |
| CCc1ccc(S(=O)(=O)Nc2cccc(-c3ccc(OC)nn3)c2)s1 | inconclusive: -0.372% [at 46 µM] | – |
| CC(C)NC(=O)c1onc(CSc2ccc(C(C)C)cc2)c1C(=O)O | inconclusive: 8.86% [at 0.0737 µM] | – |

| Compound | ratio change, negative = inhibition | Potency |
| --- | --- | --- |
| COc1cc(Cl)c(S(=O)(=O)NCc2cccnc2)cc1Cl | inconclusive: 15.3% | – |
| O=C(c1cnn2c(C(F)(F)F)cc(-c3ccccc3)nc12)N1CCCCC1c1cccnc1 (configuration not stated) | – | inconclusive: 35.5 µM [cytotoxic, single point] |
| Fc1ccc(C[n+]2csc3ccccc32)cc1 | inconclusive: 13.5% | – |
| Cc1ccccc1Nc1nnc(SCC(=O)NCc2ccco2)s1 | inconclusive: 11.1% | – |
| O=C(Nc1ccc(Cl)c(Cl)c1)c1cccc(S(=O)(=O)NCc2cccnc2)c1 | – | inconclusive: 7.08 µM [falling, full curve] |
| CC(C)C(=O)Nc1cccc(NC(=S)NC(=O)c2ccc(Cl)cc2)c1 | inactive | – |
| O=C(NCCc1c[nH]c2ccccc12)C(=O)NCC1OCCCN1S(=O)(=O)c1cc(F)ccc1F (configuration not stated) | – | inconclusive: 22.4 µM [inhibitor, single point] |
| COc1ccc(/C=N/N=C2/NC(=O)C(CC(=O)O)S2)cc1OS(=O)(=O)c1ccccc1 (configuration not stated) | inconclusive: 1.63% [at 46 µM] | – |
| Cc1cc2nc(SCC(=O)Nc3nonc3C)c3c(c2cc1C)CCCC3 | inactive | – |
| Cc1ccc(NC(=O)COC(=O)c2cccnc2)cc1 | inconclusive: 24.7% [at 46 µM] | – |
| CC(=O)NC1=NC(=O)/C(=C/c2cn(C(C)=O)nc2-c2ccccc2)S1 | inconclusive: -19% [at 46 µM] | – |
| CCSC1=C(C#N)C(c2ccc(OC)c(OC)c2)CC(=O)N1 (configuration not stated) | inactive | – |
| COc1ccc(-n2ncc(C(=O)NCCCN3CCCCC3)c2C2CCN(C(=O)OC(C)(C)C)CC2)cc1 | inactive | – |
| Cc1ccccc1NC(=O)c1ccc(F)c(S(=O)(=O)N2CCc3ccccc3C2)c1 | inconclusive: 10.5% [at 46 µM] | – |
| O=S(=O)(Nc1cccc(S(=O)(=O)N2CCOCC2)c1)c1ccc(Cl)s1 | – | inconclusive: 35.5 µM [rising, single point] |
| O=C1CCCN1CCCNC(=S)Nc1ccc(F)cc1 | inconclusive: 1.51% [at 46 µM] | – |
| C[C@H](O)Cn1cnc2c1c(=O)n(C)c(=O)n2C | inactive | – |
| CCC(Sc1ccc2nnc(-c3ccc(OC)c(OC)c3)n2n1)C(=O)O (configuration not stated) | inactive | – |
| Cc1onc(-c2ccccc2)c1C(=O)c1c[nH]c(C(=O)NCCCN2CCOCC2)c1 | inconclusive: 14.4% [at 46 µM] | – |
| CCCCNC(=S)N(C)/N=C/c1c(F)cccc1F | inconclusive: 12.3% | – |
| CCOc1ccc(S(=O)(=O)N2CCc3ccccc3C2)cc1 | inconclusive: -21.2% | – |
| CC(O)/C=C/c1ccc2ccccc2n1 (configuration not stated) | – | inconclusive: 11.2 µM [inhibitor, partial curve] |
| Cc1ccccc1OCC(=O)Nc1ccc2nc(SCCOc3ccccc3)sc2c1 | inactive | – |
| COc1ccc(C(=O)NCCc2nnc(SCC(=O)Nc3ccc(Br)cc3)n2C)cc1 | inconclusive: 4.45% | – |
| CCCNC(=O)c1nnsc1S(=O)c1ccc(Cl)cc1 (configuration not stated) | inactive: -3.76% [at 9.22 µM] | – |
| CCc1ccccc1NC(=O)C(=O)NCC(c1cccnc1)N1CCc2ccccc21 (configuration not stated) | inactive | – |
